Measured values taken from US20050272098A1, “Quantitation of endothelial microparticles” (priority 2004, published 2005).
At least one structure is not confirmed: it was looked up by name or label, or the drawing left a doubt.

Tests used:
[1] = test system: RhoA; test: RhoA activity pull-down assay (Rhotekin Rho Binding Domain agarose, western blot) in HCAEC; assay type: cell-based, human; settings: TNF-α 10 ng/mL, Fluvastatin 0.1 μM/L, western blot densitometry, three independent experiments
Experimental: HCAECs were purchased from Cambrex Bio Science (Walkersville, Md.) and cultured according to the supplier's specifications. All experiments were performed on confluent cells. EC were treated with 10 ng/mL TNF-α alone or with the addition of fluvatstain (0.1 μmol/mL) or ROK inhibitor, Y-27632 (10 μmol M/L). Controls were un-treated. After 24 hours culture supernatants from flasks containing HCAEC were collected and centrifuged for 30 min at 17,570×g, (4° C.). Pellets were re-suspended in 1 mL of PBS and were analyzed on the same day. RhoA activity was determined by a pull-down assay. The cell lysates were incubated with Rhotekin Rho Binding Domain agarose for 45 minutes. The agarose beads were collected and electrophoresed in 8-16% SDS-PAGE gel (Cambrex, Rockland, Me.). GDP and GTP-labeling of cell lysates served as negative and positive controls, respectively. Western blotting was performed with RhoA antibody at a dilution of 1:200. The blot densities were analyzed with Mocha Image Analysis (version 1.2.10).

[2] = test system: HCAEC; test: Release of CAM-specific EMP from TNF-α-activated HCAEC, two-color flow cytometry with TruCount beads; assay type: cell-based, human; settings: TNF-α 10 ng/mL plus Fluvastatin 0.1 μM/L, 24 hours, mean ± SEM
Experimental: HCAECs were purchased from Cambrex Bio Science (Walkersville, Md.) and cultured according to the supplier's specifications. All experiments were performed on confluent cells. EC were treated with 10 ng/mL TNF-α alone or with the addition of fluvatstain (0.1 μmol/mL) or ROK inhibitor, Y-27632 (10 μmol M/L). Controls were un-treated. After 24 hours culture supernatants from flasks containing HCAEC were collected and centrifuged for 30 min at 17,570×g, (4° C.). Pellets were re-suspended in 1 mL of PBS and were analyzed on the same day. For single platform method, 3 μL each of FITC-conjugated and PE-conjugated monoclonal antibodies against the above mentioned CAMs plus 50 μL of re-suspended pellet were added to tubes (two antibodies/tube) preloaded with fluorescent TruCount™ bead lyophilized pellets (Becton Dickinson Biosciences, San Jose, Calif.). Tubes were incubated for 20 min at room temperature. Analysis of EMPs was performed using a FACScan Flow Cytometer (Becton Dickinson Biosciences, San Jose, Calif.). The EMPs were excited with 488 nm light from a 15 mW argon laser. Logarithmic green and red fluorescences of FITC and PE were measured through 530/30 nm and 585/42 nm bandpass filters, respectively. Data from 2,000 events were acquired and analyzed with the use of CELLQuest™ software (version 3.3, Becton Dickinson). The absolute number of EMPs was calculated from the appropriate dot plot values entered into the following formula: [formula] The total number of beads per tube is supplied by the manufacturer and varies among lot numbers. RhoA Activity Statistical analysis was performed using SPSS 10.0.7 statistical software (SPSS Inc., Chicago, Ill.). Values are stated as mean±SEM. One-way ANOVA was used to compare means from three or more groups. In cases where the data were not normally distributed, the Mann-Whitney rank sum test was used. A value of p<0.05 was considered as significant for all tests.

## CC(C)n1c(/C=C/C(O)CC(O)CC(=O)O)c(-c2ccc(F)cc2)c2ccccc21 (stereo not shown) [Fluvastatin]
[1]
  effect on TNF-α-induced RhoA activation: significantly prevented
[2]
  absolute count of EMP, CD31 (PECAM-1): remained elevated
  absolute count of EMP, CD 54 (ICAM-1): remained elevated
  absolute count of EMP, CD106 (VCAM-1): increased
